For part of these data: No signal at the amounts used counts as a negative. For part of these data: Construct, isoform or probe ends are uncertain for at least one entry.
Tests used:
[1] = test system: MtrA (Orf1029) (Actinoplanes deccanensis YP-1); test: EMSA; details: 0.05-0.1 ug MtrA in 10 uL; EMSA in 10 uL mix with 0.025-0.1 ug protein; pH and temperature not given (as described previously); recombinant protein; residues 1-233; protein details: His-tag (pET28a); label: 5'-FAM; probe letters rebuilt from the primers and the genome; part of a longer molecule
[2] = test system: Orf9379 (Actinoplanes deccanensis YP-1); test: EMSA; details: EMSA in 10 uL mix with 0.025-0.1 ug protein; pH and temperature not given (as described previously); recombinant protein; residues 1-225; protein details: His-tag (pET28a); label: 5'-FAM; probe letters rebuilt from the primers and the genome; part of a longer molecule
[3] = test system: MtrA (Orf1029) (Actinoplanes deccanensis YP-1); test: DNase I footprinting; details: 5 ug MtrA; recombinant protein; residues 1-233; protein details: His-tag (pET28a); label: 5'-FAM; probe letters rebuilt from the primers and the genome; part of a longer molecule

“TCTGCTATCCATCAAGCCAACCACATCCTTGATCGATCGTCGCCACAGGGCATACCGACGTAATGACTATCACCGCTGATCCAGCACGGTGAACCCCTAGTTCTCCTATGCCCGTAGGGGCCACGGATTCCCAGGTCACACGCAGTGGCAACGAATCGCTCAACTCCCCGAAACACATCGGACGCACGACATGTGATATCGACGTCAGTAATTGCCGCCGGCACCGCGTAGCACGCGCCAAGGTGTTCCGCGCCGAGGTGGCTGCACGTCCGCACAGCGGGACGCGGCATCCCACGCTCTGATTGACGATGATCGATCACGCGATCCATTCGTCAGACTGACCAACATCGCTGTCAGTGTGCCAGGGATCACCGCGAGCAACAAGGTTTGGCGCGAGTAGGGCGGAAATGACCCGGCATGCAGGACGAATGCCCGAAGTGTGCGCTGCGTCACACATCGTGGCACCCCTTGCCTCGCAGGGATAGGGGTTAACGGCCGCCGTGCCCGACGTTAGCTTCGATCTGGCCTCGCGCGCCTGAGCGGGCGACGACAGACGACCACGGAGGCACC (double strand) [fadS5R1p]”: binds [1]; no binding [2]; binds [3].

Reference: paper PMC10714768
